The data set is described as follows: TMTcalibrator quantification of regulated proteins in AD CSF versus control. Set-up: species or system human. Particulars: CSF of AD patient versus control; non-modified peptides of each protein summed for three control and three AD cases.

B1: Q8TF74 (protein, UniProt Q8TF74 1-440, looked up)
chain: MPIPPPPPPPPGPPPPPTFHQANTEQPKLSRDEQRGRGALLQDICKGTKLKKVTNINDRSAPILEKPKGSSGGYGSGGAALQPKGGLFQGGVLKLRPVGAKDGSENLAGKPALQIPSSRAAAPRPPVSAASGRPQDDTDSSRASLPELPRMQRPSLPDLSRPNTTSSTGMKHSSSAPPPPPPGRRANAPPTPLPMHSSKAPAYNREKPLPPTPGQRLHPGREGPPAPPPVKPPPSPVNIRTGPSGQSLAPPPPPYRQPPGVPNGPSSPTNESAPELPQRHNSLHRKTPGPVRGLAPPPPTSASPSLLSNRPPPPARDPPSRGAAPPPPPPVIRNGARDAPPPPPPYRMHGSEPPSRGKPPPPPSRTPAGPPPPPPPPLRNGHRDSITTVRSFLDDFESKYSFHPVEDFPAPEEYKHFQRIYPSKTNRAARGAPPLPPILR
modifications: full-length
Turning to B1, the “Log2 AD/Control” value was 1.71.

B2: Q9BTV4 (protein, UniProt Q9BTV4 1-400, looked up)
chain: MAANYSSTSTRREHVKVKTSSQPGFLERLSETSGGMFVGLMAFLLSFYLIFTNEGRALKTATSLAEGLSLVVSPDSIHSVAPENEGRLVHIIGALRTSKLLSDPNYGVHLPAVKLRRHVEMYQWVETEESREYTEDGQVKKETRYSYNTEWRSEIINSKNFDREIGHKNPSAMAVESFMATAPFVQIGRFFLSSGLIDKVDNFKSLSLSKLEDPHVDIIRRGDFFYHSENPKYPEVGDLRVSFSYAGLSGDDPDLGPAHVVTVIARQRGDQLVPFSTKSGDTLLLLHHGDFSAEEVFHRELRSNSMKTWGLRAAGWMAMFMGLNLMTRILYTLVDWFPVFRDLVNIGLKAFAFCVATSLTLLTVAAGWLFYRPLWALLIAGLALVPILVARTRVPAKKLE
modifications: full-length
Take B2: the “Log2 AD/Control” value was −0.80.

B3: P49748 (protein, UniProt P49748 1-655, looked up)
chain: MQAARMAASLGRQLLRLGGGSSRLTALLGQPRPGPARRPYAGGAAQLALDKSDSHPSDALTRKKPAKAESKSFAVGMFKGQLTTDQVFPYPSVLNEEQTQFLKELVEPVSRFFEEVNDPAKNDALEMVEETTWQGLKELGAFGLQVPSELGGVGLCNTQYARLVEIVGMHDLGVGITLGAHQSIGFKGILLFGTKAQKEKYLPKLASGETVAAFCLTEPSSGSDAASIRTSAVPSPCGKYYTLNGSKLWISNGGLADIFTVFAKTPVTDPATGAVKEKITAFVVERGFGGITHGPPEKKMGIKASNTAEVFFDGVRVPSENVLGEVGSGFKVAMHILNNGRFGMAAALAGTMRGIIAKAVDHATNRTQFGEKIHNFGLIQEKLARMVMLQYVTESMAYMVSANMDQGATDFQIEAAISKIFGSEAAWKVTDECIQIMGGMGFMKEPGVERVLRDLRIFRIFEGTNDILRLFVALQGCMDKGKELSGLGSALKNPFGNAGLLLGEAGKQLRRRAGLGSGLSLSGLVHPELSRSGELAVRALEQFATVVEAKLIKHKKGIVNEQFLLQRLADGAIDLYAMVVVLSRASRSLSEGHPTAQHEKMLCDTWCIEAAARIREGMAALQSDPWQQELYRNFKSISKALVERGGVVTSNPLGF
modifications: full-length
Consider B3, for which the “Log2 AD/Control” value is reported as 0.91.

B4: Q9Y3I0 (protein, UniProt Q9Y3I0 1-505, looked up)
chain: MSRSYNDELQFLEKINKNCWRIKKGFVPNMQVEGVFYVNDALEKLMFEELRNACRGGGVGGFLPAMKQIGNVAALPGIVHRSIGLPDVHSGYGFAIGNMAAFDMNDPEAVVSPGGVGFDINCGVRLLRTNLDESDVQPVKEQLAQAMFDHIPVGVGSKGVIPMNAKDLEEALEMGVDWSLREGYAWAEDKEHCEEYGRMLQADPNKVSARAKKRGLPQLGTLGAGNHYAEIQVVDEIFNEYAAKKMGIDHKGQVCVMIHSGSRGLGHQVATDALVAMEKAMKRDKIIVNDRQLACARIASPEGQDYLKGMAAAGNYAWVNRSSMTFLTRQAFAKVFNTTPDDLDLHVIYDVSHNIAKVEQHVVDGKERTLLVHRKGSTRAFPPHHPLIAVDYQLTGQPVLIGGTMGTCSYVLTGTEQGMTETFGTTCHGAGRALSRAKSRRNLDFQDVLDKLADMGIAIRVASPKLVMEEAPESYKNVTDVVNTCHDAGISKKAIKLRPIAVIKG
modifications: full-length
For B4, the “Log2 AD/Control” value is 1.15.

B5: Q9H3H3 (protein, UniProt Q9H3H3 1-292, looked up)
chain: MAAAAAAAVAGVGRGGGGAEPRQERSRARGWAGVERSEGRRMEPGEELEEEGSPGGREDGFTAEHLAAEAMAADMDPWLVFDARTTPATELDAWLAKYPPSQVTRYGDPGSPNSEPVGWIAVYGQGYSPNSGDVQGLQAAWEALQTSGRPITPGTLRQLAITHHVLSGKWLMHLAPGFKLDHAWAGIARAVVEGQLQVAKVSPRAKEGGRQVICVYTDDFTDRLGVLEADSAIRAAGIKCLLTYKPDVYTYLGIYRANRWHLCPTLYESRFQLGGSARGSRVLDRANNVELT
modifications: full-length
As to B5, the “Log2 AD/Control” value was determined as 0.83.

B6: Q9ULF5 (protein, UniProt Q9ULF5 1-831, looked up)
chain: MKVHMHTKFCLICLLTFIFHHCNHCHEEHDHGPEALHRQHRGMTELEPSKFSKQAAENEKKYYIEKLFERYGENGRLSFFGLEKLLTNLGLGERKVVEINHEDLGHDHVSHLDILAVQEGKHFHSHNHQHSHNHLNSENQTVTSVSTKRNHKCDPEKETVEVSVKSDDKHMHDHNHRLRHHHRLHHHLDHNNTHHFHNDSITPSERGEPSNEPSTETNKTQEQSDVKLPKGKRKKKGRKSNENSEVITPGFPPNHDQGEQYEHNRVHKPDRVHNPGHSHVHLPERNGHDPGRGHQDLDPDNEGELRHTRKREAPHVKNNAIISLRKDLNEDDHHHECLNVTQLLKYYGHGANSPISTDLFTYLCPALLYQIDSRLCIEHFDKLLVEDINKDKNLVPEDEANIGASAWICGIISITVISLLSLLGVILVPIINQGCFKFLLTFLVALAVGTMSGDALLHLLPHSQGGHDHSHQHAHGHGHSHGHESNKFLEEYDAVLKGLVALGGIYLLFIIEHCIRMFKHYKQQRGKQKWFMKQNTEESTIGRKLSDHKLNNTPDSDWLQLKPLAGTDDSVVSEDRLNETELTDLEGQQESPPKNYLCIEEEKIIDHSHSDGLHTIHEHDLHAAAHNHHGENKTVLRKHNHQWHHKHSHHSHGPCHSGSDLKETGIANIAWMVIMGDGIHNFSDGLAIGAAFSAGLTGGISTSIAVFCHELPHELGDFAVLLKAGMTVKQAIVYNLLSAMMAYIGMLIGTAVGQYANNITLWIFAVTAGMFLYVALVDMLPEMLHGDGDNEEHGFCPVGQFILQNLGLLFGFAIMLVIALYEDKIVFDIQF
modifications: full-length
Take B6: the “Log2 AD/Control” value is 0.76.

B7: Q9UPY6 (protein, UniProt Q9UPY6 1-502, looked up)
chain: MPLVKRNIEPRHLCRGALPEGITSELECVTNSTLAAIIRQLSSLSKHAEDIFGELFNEANNFYIRANSLQDRIDRLAVKVTQLDSTVEEVSLQDINMKKAFKSSTVQDQQVVSKNSIPNPVADIYNQSDKPPPLNILTPYRDDKKDGLKFYTDPSYFFDLWKEKMLQDTEDKRKEKRRQKEQKRIDGTTREVKKVRKARNRRQEWNMMAYDKELRPDNRLSQSVYHGASSEGSLSPDTRSHASDVTDYSYPATPNHSLHPQPVTPSYAAGDVPPHGPASQAAEHEYRPPSASARHMALNRPQQPPPPPPPQAPEGSQASAPMAPADYGMLPAQIIEYYNPSGPPPPPPPPVIPSAQTAFVSPLQMPMQPPFPASASSTHAAPPHPPSTGLLVTAPPPPGPPPPPPGPPGPGSSLSSSPMHGPPVAEAKRQEPAQPPISDARSDLLAAIRMGIQLKKVQEQREQEAKREPVGNDVATILSRRIAVEYSDSDDDSEFDENDWSD
modifications: full-length
Regarding B7, the “Log2 AD/Control” value was found to be 0.77.

B8: Q14376 (protein, UniProt Q14376 1-348, looked up)
chain: MAEKVLVTGGAGYIGSHTVLELLEAGYLPVVIDNFHNAFRGGGSLPESLRRVQELTGRSVEFEEMDILDQGALQRLFKKYSFMAVIHFAGLKAVGESVQKPLDYYRVNLTGTIQLLEIMKAHGVKNLVFSSSATVYGNPQYLPLDEAHPTGGCTNPYGKSKFFIEEMIRDLCQADKTWNAVLLRYFNPTGAHASGCIGEDPQGIPNNLMPYVSQVAIGRREALNVFGNDYDTEDGTGVRDYIHVVDLAKGHIAALRKLKEQCGCRIYNLGTGTGYSVLQMVQAMEKASGKKIPYKVVARREGDVAACYANPSLAQEELGWTAALGLDRMCEDLWRWQKQNPSGFGTQA
modifications: full-length
Regarding B8, the “Log2 AD/Control” value stood at 0.82.

B9: Q15714 (protein, UniProt Q15714 1-1073, looked up)
chain: MHQPPESTAAAAAAADISARKMAHPAMFPRRGSGSGSASALNAAGTGVGSNATSSEDFPPPSLLQPPPPAASSTSGPQPPPPQSLNLLSQAQLQAQPLAPGGTQMKKKSGFQITSVTPAQISASISSNNSIAEDTESYDDLDESHTEDLSSSEILDVSLSRATDLGEPERSSSEETLNNFQEAETPGAVSPNQPHLPQPHLPHLPQQNVVINGNAHPHHLHHHHQIHHGHHLQHGHHHPSHVAVASASITGGPPSSPVSRKLSTTGSSDSITPVAPTSAVSSSGSPASVMTNMRAPSTTGGIGINSVTGTSTVNNVNITAVGSFNPNVTSSMLGNVNISTSNIPSAAGVSVGPGVTSGVNVNILSGMGNGTISSSAAVSSVPNAAAGMTGGSVSSQQQQPTVNTSRFRVVKLDSSSEPFKKGRWTCTEFYEKENAVPATEGVLINKVVETVKQNPIEVTSERESTSGSSVSSSVSTLSHYTESVGSGEMGAPTVVVQQQQQQQQQQQQQPALQGVTLQQMDFGSTGPQSIPAVSIPQSISQSQISQVQLQSQELSYQQKQGLQPVPLQATMSAATGIQPSPVNVVGVTSALGQQPSISSLAQPQLPYSQAAPPVQTPLPGAPPPQQLQYGQQQPMVSTQMAPGHVKSVTQNPASEYVQQQPILQTAMSSGQPSSAGVGAGTTVIPVAQPQGIQLPVQPTAVPAQPAGASVQPVGQAPAAVSAVPTGSQIANIGQQANIPTAVQQPSTQVPPSVIQQGAPPSSQVVPPAQTGIIHQGVQTSAPSLPQQLVIASQSSLLTVPPQPQGVEPVAQGIVSQQLPAVSSLPSASSISVTSQVSSTGPSGMPSAPTNLVPPQNIAQTPATQNGNLVQSVSQPPLIATNTNLPLAQQIPLSSTQFSAQSLAQAIGSQIEDARRAAEPSLVGLPQTISGDSGGMSAVSDGSSSSLAASASLFPLKVLPLTTPLVDGEDESSSGASVVAIDNKIEQAMDLVKSHLMYAVREEVEVLKEQIKELIEKNSQLEQENNLLKTLASPEQLAQFQAQLQTGSPPATTQPQGTTQPPAQPASQGSGPTA
modifications: full-length
For the molecule B9, the “Log2 AD/Control” value is reported as 0.89.

B10: P28289 (protein, UniProt P28289 1-359, looked up)
chain: MSYRRELEKYRDLDEDEILGALTEEELRTLENELDELDPDNALLPAGLRQKDQTTKAPTGPFKREELLDHLEKQAKEFKDREDLVPYTGEKRGKVWVPKQKPLDPVLESVTLEPELEEALANASDAELCDIAAILGMHTLMSNQQYYQALSSSSIMNKEGLNSVIKPTQYKPVPDEEPNSTDVEETLERIKNNDPKLEEVNLNNIRNIPIPTLKAYAEALKENSYVKKFSIVGTRSNDPVAYALAEMLKENKVLKTLNVESNFISGAGILRLVEALPYNTSLVEMKIDNQSQPLGNKVEMEIVSMLEKNATLLKFGYHFTQQGPRLRASNAMMNNNDLVRKRRLADLTGPIIPKCRSGV
modifications: full-length
For B10, the “Log2 AD/Control” value is 1.00.

(Values after patent US12419871B2, “Biomolecules involved in Alzheimer's disease” (ELECTROPHORETICS LIMITED, priority 2015, dated 2025).)
